In experiment [1] the target is T1, S1P1 (Homo sapiens, UniProt P21453). The experiment can be described thus: Tango β-arrestin Recruitment Assay in HEK293 cells (Assay 2a). The conditions noted are these: read-out: Assay 2a EC50.
Experiment [2] deals with T1, S1P1. The experiment can be described thus: Tango β-arrestin Recruitment Assay in U2OS cells (Assay 2b). The conditions noted are these: read-out: Assay 2b EC50.
Experiment [3] concerns the target T1, S1P1. Nature of the experiment: CNG cAMP Assay (Assay 1). The conditions noted are these: read-out: Assay 1 EC50. On the procedure: Frozen HEK293 cells expressing the CNG channel and S1P1 (BD Biosciences, San Jose, Calif.) were thawed and plated into the wells of a black, clear bottom, 384-well CellBind plate (Corning, Corning, N.Y.) at 14,000 cells per well. HEK293 cells expressing the CNG channel and CB1 (BD Biosciences) were cultured and plated under the same conditions. The cells were incubated for 16 h at 37° C. in complete DMEM medium (Invitrogen Carlsbad, Calif.) containing 10% FBS (HyClone Logan, Utah), 250 μg/mL geneticin (Invitrogen), and 1 μg/mL puromycin (Sigma-Aldrich, St. Louis, Mo.). A membrane potential dye (BD Biosciences) was added and the plates were incubated for 2-2.5 h at room temperature.
Test compounds were tested at maximum concentrations of 10 μM. […] The assay plate was read before compound addition (T0) and after the 90 min incubation (T90) using an EnVision plate reader (PerkinElmer, Waltham, Mass.) at an excitation wavelength of 350 nm and an emission wavelength of 590 nm. The T90/T0 ratio was determined for each concentration of the test compounds. The percent agonist activity was determined as [(test compound−DMSO alone control)/(NECA alone control−DMSO alone control)*100]. […]
Assay 1 is the CNG cAMP Assay as described in Biological Example 1. […] EC50's were measured unless otherwise noted. […]

Amino acid sequences for entries named in this document (tags omitted).
UniProt P21453, whole entry: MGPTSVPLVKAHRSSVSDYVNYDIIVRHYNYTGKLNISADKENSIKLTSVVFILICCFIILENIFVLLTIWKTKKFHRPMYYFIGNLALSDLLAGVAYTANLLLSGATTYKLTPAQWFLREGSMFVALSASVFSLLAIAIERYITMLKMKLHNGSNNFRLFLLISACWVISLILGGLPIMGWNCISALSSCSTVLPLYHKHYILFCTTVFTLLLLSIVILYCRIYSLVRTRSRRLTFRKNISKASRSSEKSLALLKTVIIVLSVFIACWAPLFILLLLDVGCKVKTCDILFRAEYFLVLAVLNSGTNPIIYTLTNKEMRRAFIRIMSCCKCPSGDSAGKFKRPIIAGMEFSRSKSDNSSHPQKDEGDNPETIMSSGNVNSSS
UniProt P32121, whole entry partner: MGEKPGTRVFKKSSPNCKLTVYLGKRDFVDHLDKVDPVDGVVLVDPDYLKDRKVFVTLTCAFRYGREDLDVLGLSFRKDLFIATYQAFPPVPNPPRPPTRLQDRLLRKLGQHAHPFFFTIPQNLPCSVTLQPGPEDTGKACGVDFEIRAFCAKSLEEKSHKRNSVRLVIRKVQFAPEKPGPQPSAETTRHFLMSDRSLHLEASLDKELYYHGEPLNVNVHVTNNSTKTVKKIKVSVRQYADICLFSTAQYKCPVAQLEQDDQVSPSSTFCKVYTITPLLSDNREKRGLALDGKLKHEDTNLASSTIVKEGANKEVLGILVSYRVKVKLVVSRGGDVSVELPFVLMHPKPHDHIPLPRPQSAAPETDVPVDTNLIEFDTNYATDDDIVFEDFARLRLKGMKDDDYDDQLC

The structures given here were assigned with low confidence; some may be wrong.

On to `CC(CO)Oc1cc(Cl)c(-c2noc(-c3cn4cc(C(F)(F)F)cc(Cl)c4n3)n2)cc1Cl` (centres unmarked), for which the EC50 at S1P1 [1], on S1P1 [2] and at S1P1 [3] was < 100 nM in each case.
As for `OCC1CC1c1ccc(-c2noc(-c3cn4cc(C(F)(F)F)cc(Cl)c4n3)n2)c(Cl)c1` (centres unmarked), the EC50 on S1P1 [1] and on S1P1 [3] was < 100 nM throughout.

The record behind these values is US20100160369A1, “S1P1 Agonists and Methods of Making And Using” (EXELIXIS, INC., priority 2008, published 2010).
